Assay results as given in the supplement of paper PMC4604168 (melanoma cell lines).
The other results are listed elsewhere or left out. Many values rest on one well or one pass, so single values are uncertain.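 The apoptosis fraction was the count of cleaved-PARP antibody-stained nuclei relative to all DNA-stained nuclei, imaged in 1,536-well plates. Screening doses were set so most cells survived, and baseline and induced cleaved-PARP levels vary greatly across cell lines.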

These compounds were tested on WM115 (assay: cleaved PARP positive nuclei fraction relative to DMSO control; melanoma cells; higher = more apoptosis). Conditions: library dose: low library concentration; 72 h.
For `O=C(CCCCCCC(=O)Nc1ccccc1)NO` [vorinostat] + CC(C)(C)c1cnc(CSc2cnc(NC(=O)C3CCNCC3)s2)o1 [SNS-032] (first compound 0.08 µM, partner dose 0.01 µM), the “cleaved PARP positive nuclei fraction” value was 72.2%.
For `C=CCNC1=C2C[C@@H](C)C[C@H](OC)[C@H](O)[C@@H](C)/C=C(\C)[C@H](OC(N)=O)[C@@H](OC)/C=C\C=C(/C)C(=O)NC(=CC1=O)C2=O` [Tanespimycin] + CC(C)(C)c1cnc(CSc2cnc(NC(=O)C3CCNCC3)s2)o1 [SNS-032] (first compound 0.002 µM, partner dose 0.01 µM), the “cleaved PARP positive nuclei fraction” value was 85%.
In the case of `CC(=O)c1c(C)c2cnc(Nc3ccc(N4CCNCC4)cn3)nc2n(C2CCCC2)c1=O` [palbociclib] + OCCn1cc(-c2cnc3nnn(Cc4ccc5ncccc5c4)c3n2)cn1 [PF04217903] (first compound 0.04 µM, partner dose 1 µM), the “cleaved PARP positive nuclei fraction” value was 260%.
For `C=CCNC1=C2C[C@@H](C)C[C@H](OC)[C@H](O)[C@@H](C)/C=C(\C)[C@H](OC(N)=O)[C@@H](OC)/C=C\C=C(/C)C(=O)NC(=CC1=O)C2=O` [Tanespimycin] + CN(NC(=O)CC(=O)NN(C)C(=S)c1ccccc1)C(=S)c1ccccc1 [STA4783] (first compound 0.002 µM, partner dose 0.006 µM), the “cleaved PARP positive nuclei fraction” value was 302%.
With `CC1(C)NC(=O)N(c2ccc([N+](=O)[O-])c(C(F)(F)F)c2)C1=O` [nilutamide] + CCCCCCCCCCCC1=C(O)C(=O)C=C(O)C1=O [Embelin] (first compound 1 µM, partner dose 1.2 µM) the “cleaved PARP positive nuclei fraction” value was 94.2%.
`Cn1c(Nc2ccc(C(F)(F)F)cc2)nc2cc(Oc3ccnc(-c4ncc(C(F)(F)F)[nH]4)c3)ccc21` + COCC[n+]1c2c(n(Cc3cnccn3)c1C)C(=O)c1ccccc1C2=O [YM155] (first compound 0.08 µM, partner dose 0.0004 µM) was tested, and the “cleaved PARP positive nuclei fraction” value was 261%.

What follows are compounds tested on WM1716 in the same assay as above. Conditions: library dose: low library concentration; 72 h.
With `O=C(CCCCCCC(=O)Nc1ccccc1)NO` [vorinostat] + O=C(Nc1cccc(Cl)c1)Nc1ncc(CCNc2ncnc3ccsc23)s1 [SNS314] (first compound 0.08 µM, partner dose 0.0008 µM) the “cleaved PARP positive nuclei fraction” value was 139%.
`Cn1cncc1[C@@](N)(c1ccc(Cl)cc1)c1ccc2c(c1)c(-c1cccc(Cl)c1)cc(=O)n2C` [tipifarnib] + O=C(Nc1ccccc1)c1cc([N+](=O)[O-])ccc1Cl [GW9662] (first compound 0.01 µM, partner dose 2 µM) was tested, and the “cleaved PARP positive nuclei fraction” value was 111%.
In the case of `C[C@@H]1CCN(C(=O)CC#N)C[C@@H]1N(C)c1ncnc2[nH]ccc12` + N#Cc1c(O)c2c(-c3ccc(-c4ccccc4O)cc3)csc2[nH]c1=O [A769662] (first compound 1 µM, partner dose 2 µM), the “cleaved PARP positive nuclei fraction” value was 106%.
With `COCC[n+]1c2c(n(Cc3cnccn3)c1C)C(=O)c1ccccc1C2=O` + CN(NC(=O)CC(=O)NN(C)C(=S)c1ccccc1)C(=S)c1ccccc1 [STA4783] (first compound 0.0004 µM, partner dose 0.006 µM) the “cleaved PARP positive nuclei fraction” value was 245%.
For `O=C(CCCCCCC(=O)Nc1ccccc1)NO` [vorinostat] + COC(=O)c1sccc1S(=O)(=O)Nc1ccc(Nc2ccccc2)cc1OC [GSK0660] (first compound 0.08 µM, partner dose 1 µM), the “cleaved PARP positive nuclei fraction” value was 117%.
With `CO[C@@H]1[C@H](N(C)C(=O)c2ccccc2)C[C@H]2O[C@]1(C)n1c3ccccc3c3c4c(c5c6ccccc6n2c5c31)C(=O)NC4` [Midostaurin] + CN(NC(=O)CC(=O)NN(C)C(=S)c1ccccc1)C(=S)c1ccccc1 [STA4783] (first compound 0.08 µM, partner dose 0.006 µM) the “cleaved PARP positive nuclei fraction” value was 148%.
For `NC(=O)Nc1cc(-c2cccc(F)c2)sc1C(=O)N[C@H]1CCCNC1` + O=C1NC(=O)/C(=C/c2ccc(-c3ccc(F)cc3O)o2)S1 [AS252424] (first compound 0.02 µM, partner dose 1 µM), the “cleaved PARP positive nuclei fraction” value was 154%.
For `OCc1c[nH]c2ccccc12` [Indole-3-carbinol] + O=c1cc(-c2cccc3c2Sc2ccccc2S3)oc(N2CCOCC2)c1 [KU55933] (first compound 0.8 µM, partner dose 1 µM), the “cleaved PARP positive nuclei fraction” value was 35.6%.
In the case of `COCC[n+]1c2c(n(Cc3cnccn3)c1C)C(=O)c1ccccc1C2=O` + C[C@@H]1CCN(C(=O)CC#N)C[C@@H]1N(C)c1ncnc2[nH]ccc12 [CP690550] (first compound 0.0004 µM, partner dose 1 µM), the “cleaved PARP positive nuclei fraction” value was 269%.
